{"source": "PubChem BioAssay (EPA / NIEHS)", "note": "The shares of active, inactive and inconclusive entries below differ from those in the screen. Potencies of inconclusive entries are doubtful fits and often do not repeat. Active and inactive are the calls of the source. Rule for the calls: active = hit-call score of the fitted dose curve at least 0.9, where 1 is the maximum; inconclusive = response in the unintended direction; inactive = score below 0.9.", "data": [{"test": "CCTE_Shafer_MEA_dev_AB: CCTE's Alamar Blue Assay for Cytotoxicity in the Neural Network Formation Assay, Shafer Lab (AID 2284083);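 note: twelve days of exposure from plating with re-dosing on DIV 5 and 9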", "outline": "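Primary rat cortical neurons on PEI-coated 48-well MEA plates, 1.5 x 10^5 cells/well in laminin drop; compound exposure from day 0 of plating for twelve days, renewed at medium changes on DIV 5 and 9. Viability read as resazurin reduction by fluorescence, relative to DMSO.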", "values": [{"smiles": "OCCOCCO", "AC50": "inconclusive: 0.0784 µM"}, {"smiles": "CS(=O)(=O)c1cc(C(F)(F)F)ccc1C(=O)c1cnoc1C1CC1", "AC50": "inconclusive: 12.3 µM"}, {"smiles": "O=C(O)C=CC(F)(C(F)(F)F)C(F)(F)F", "AC50": "inconclusive: 2.98 µM"}, {"smiles": "CC(F)(F)CC(F)(F)F", "outcome": "inactive"}, {"smiles": "CC(=O)C(F)(F)C(F)(F)F", "AC50": "inconclusive: 15 µM"}, {"smiles": "O=C(O)C(F)(F)C(F)(F)C(F)(F)C(F)(F)C(F)(F)F", "AC50": "inconclusive: 15 µM"}, {"smiles": "CC(C)(C)C(=O)C(Oc1ccc(Cl)cc1)n1cncn1", "note": "(configuration not stated)", "AC50": "active: 38.6 µM"}, {"smiles": "CNC(=O)CSP(=O)(OC)OC", "AC50": "inconclusive: 1.21 µM"}]}, {"test": "CCTE_Shafer_MEA_acute_LDH: CCTE's Lactate Dehydrogenase Assay for Cytotoxicity in the Neural Acute Assay, Shafer Lab (AID 2284086);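 note: active means LDH release rises above DMSO vehicle level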", "outline": "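Medium collected from MEA wells of primary rat cortical cultures (DIV 13 or 15) immediately after 40 min chemical exposure is assayed spectrophotometrically for lactate dehydrogenase activity. Endpoint fitted in positive direction versus DMSO.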", "values": [{"smiles": "CC(C)COC(=O)c1ccccc1C(=O)OCC(C)C", "outcome": "inactive"}, {"smiles": "O=[N+]([O-])c1ccc(Oc2ccc(Cl)cc2Cl)cc1", "AC50": "inconclusive: 0.108 µM"}, {"smiles": "CC1(C)C(C(=O)OC(C#N)c2cccc(Oc3ccccc3)c2)C1(C)C", "note": "(configuration not stated)", "AC50": "inconclusive: 20 µM"}, {"smiles": "CCCCCOC(=O)c1ccccc1C(=O)OCCCCC", "AC50": "inconclusive: 20 µM"}]}]}
